In the assay the test system is BDF1 mice, P388 leukemia ip, median survival T/C. Kind of assay: NCI In Vivo Anticancer Drug Screen. Data for tumor model P388 Leukemia (intraperitoneal) in B6D2F1 (BDF1) mice. The settings on record: T/C endpoint: median survival time, higher T/C = longer survival. The method in brief:
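Vehicle-dosed animals serve as the reference; survival of compound-dosed, tumour-implanted mice is divided by it.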

[1] abbreviates: dose: 400.0 mg/kg/injection, schedule: Q01DX009 (ip), vehicle: Klucel (hydroxypropylcellulose) (HPC).

The list is a part of this screen's results and no random one: it is rich in T/C values a quarter to a half above the control, in often repeated tests (any T/C) and in doses without a T/C. Other doses and runs of a compound stand elsewhere. T/C: endpoint of the treated group in % of that of the vehicle group. Some entries give survivors of the animals treated and no T/C: the source files T/C as zero there, which appears to mark a toxic dose or a test without result, not a measured value. Some doses without a T/C left all or most animals alive at the check, yet need not have been tolerated: survival well below the control is almost never listed, so the zero probably covers shortened survival too. Counts of survivors are from the toxicity check (mostly the fifth day) where no day follows; animals may have died later. Schedules are NCI's codes, taken here to give the interval after Q, in days (D) or hours (H), and the number of doses after X. Some entries hold several experiments; the results are listed from low to high. Some schedules carry Z or #; the key to these is not given. For survival time, this PubChem deposit counts one and a half times the control or more as active, and values a quarter to a half above the control carry no call in these data; other NCI protocols may use other cut-offs. Additions like (4×) say how often a value occurs here.

As to `CC[C@H]1CN2CCc3cc(OC)c(OC)cc3[C@@H]2C[C@@H]1C[C@H]1NCCc2cc(OC)c(OC)cc21`, the T/C was 140 % of control (dose: 1.0 mg/kg/injection, schedule: Q01DX005 (ip), vehicle: saline); 145 % of control (dose: 1.0 mg/kg/injection, schedule: Q01DX009 (ip), vehicle: saline); 127 and 140 % of control (dose: 1.75 mg/kg/injection, schedule: Q01DX010 (ip), vehicle: saline); 135 % of control (dose: 4.0 mg/kg/injection, schedule: Q## X024 (ip), vehicle: saline); 125 % of control (dose: 7.0 mg/kg/injection, schedule: Q01DX010 (ip), vehicle: saline); 128 and 145 % of control (dose: 7.78 mg/kg/injection, schedule: Q04DX003 (ip), vehicle: saline). In addition, the T/C runs as follows: (dose: 8.0 mg/kg/injection, schedule: Q## X008 (ip), vehicle: saline) 140 % of control; (dose: 8.0 mg/kg/injection, schedule: Q## X016 (ip), vehicle: saline) 130 % of control; (dose: 8.0 mg/kg/injection, schedule: Q## X024 (ip), vehicle: saline) 145 % of control; (dose: 9.0 mg/kg/injection, schedule: Q04DX003 (ip), vehicle: saline) 132 % of control; (dose: 16.0 mg/kg/injection, schedule: Q01DX001 (ip), vehicle: saline) 140 % of control. The survivor count (dose: 8.0 mg/kg/injection, schedule: Q01DX009 (ip), vehicle: saline) was 10 of 10; the survivor count (dose: 12.0 mg/kg/injection, schedule: Q01DX009 (oral), vehicle: saline) is 9 of 10; the survivor count (dose: 14.0 mg/kg/injection, schedule: Q01DX010 (ip), vehicle: saline) was 2 of 6 and 6 of 6; the survivor count (dose: 16.0 mg/kg/injection, schedule: Q01DX005 (ip), vehicle: saline) is 5 of 10; the survivor count (dose: 16.0 mg/kg/injection, schedule: Q01DX009 (ip), vehicle: saline) is listed as 4 of 10; the survivor count (dose: 24.0 mg/kg/injection, schedule: Q01DX009 (oral), vehicle: saline) is listed as 0 of 10. Further, the survivor count is recorded as 7 of 8 (dose: 32.0 mg/kg/injection, schedule: Q04DX003 (ip), vehicle: saline); 6 of 10 (dose: 32.0 mg/kg/injection, schedule: Q## X008 (ip), vehicle: saline); 7 of 10 (dose: 32.0 mg/kg/injection, schedule: Q## X024 (ip), vehicle: saline); 7 of 8, 7 of 7, 8 of 8 (dose: 36.0 mg/kg/injection, schedule: Q04DX003 (ip), vehicle: saline); 0 of 10 (dose: 48.0 mg/kg/injection, schedule: Q01DX001 (oral), vehicle: saline); 0 of 10 (dose: 48.0 mg/kg/injection, schedule: Q01DX009 (oral), vehicle: saline). Further, the survivor count reads like this: (dose: 64.0 mg/kg/injection, schedule: Q01DX001 (ip), vehicle: saline) 3 of 10; (dose: 64.0 mg/kg/injection, schedule: Q04DX003 (ip), vehicle: saline) 0 of 8; (dose: 64.0 mg/kg/injection, schedule: Q## X002 (ip), vehicle: saline) 0 of 10; (dose: 64.0 mg/kg/injection, schedule: Q## X008 (ip), vehicle: saline) 0 of 10; (dose: 64.0 mg/kg/injection, schedule: Q## X016 (ip), vehicle: saline) 0 of 10; (dose: 96.0 mg/kg/injection, schedule: Q01DX001 (oral), vehicle: saline) 0 of 10. Also, the survivor count is 0 of 10 (dose: 128.0 mg/kg/injection, schedule: Q01DX001 (ip), vehicle: saline); 0 of 10 (dose: 128.0 mg/kg/injection, schedule: Q## X008 (ip), vehicle: saline); 0 of 10 (dose: 192.0 mg/kg/injection, schedule: Q01DX001 (oral), vehicle: saline); 0 of 10 (dose: 384.0 mg/kg/injection, schedule: Q01DX001 (oral), vehicle: saline).
As for `COc1cc2c(cc1OC)-c1cc3cc(OC)c(OC)cc3c(C)[n+]1CC2` (tested in a mixture with another compound), the survivor count (dose: 25.0 mg/kg/injection, schedule: Q01DX009 (ip), vehicle: Klucel (hydroxypropylcellulose) (HPC)) was 3 of 3; the survivor count (dose: 100.0 mg/kg/injection, schedule: Q01DX009 (ip), vehicle: Klucel (hydroxypropylcellulose) (HPC)) is 3 of 3; the survivor count (dose: 200.0 mg/kg/injection, schedule: Q01DX009 (ip), vehicle: Klucel (hydroxypropylcellulose) (HPC)) is 0 of 3; the survivor count under setting [1] is 0 of 3.
`COc1ccc2c(Nc3ccc(NS(C)(=O)=O)cc3)c3ccccc3nc2c1`: the T/C (dose: 0.44 mg/kg/injection, schedule: Q01DX009 (ip), vehicle: saline with Tween-80) was 144 % of control. The survivor count is 6 of 6 (dose: 100.0 mg/kg/injection, schedule: Q04DX003 (ip), vehicle: saline); 6 of 6 (dose: 200.0 mg/kg/injection, schedule: Q04DX003 (ip), vehicle: saline); 4 of 6 (dose: 400.0 mg/kg/injection, schedule: Q04DX003 (ip), vehicle: saline).
On to `CC(C)(C)OC(=O)NC(CCC(=O)O)(Cc1ccccc1)C(=O)NC(CCC(=O)OCc1ccccc1)C(=O)OCc1ccccc1` (stereo not given), for which the survivor count (dose: 50.0 mg/kg/injection, schedule: Q01DX005 (ip), vehicle: saline with Tween-80) was 5 of 5.
Turning to `COc1ccc2[nH]c3c(C)c4cc[n+](CCCCCCCC[n+]5ccc6c(C)c7[nH]c8ccc(OC)cc8c7c(C)c6c5)cc4c(C)c3c2c1`, the T/C was 128 % of control (dose: 3.13 mg/kg/injection, schedule: Q04DX003 (ip), vehicle: other); 125 % of control (dose: 12.5 mg/kg/injection, schedule: Q04DX003 (ip), vehicle: other); 128 % of control (dose: 25.0 mg/kg/injection, schedule: Q04DX003 (ip), vehicle: other). Also, for the setting “dose: 50.0 mg/kg/injection, schedule: Q04DX003 (ip), vehicle: other”, the survivor count is given as 3 of 6.
Consider `Cc1noc(C)c1CC1(Cc2c(C)noc2C)C(=O)CCC2(C)CCCC=C21` (stereo not given), for which the survivor count under setting [1] was 6 of 6.
With `CCCCCCCCCCCCCCCCN(C)c1ccc(C=O)cc1`, the T/C (dose: 400.0 mg/kg/injection, schedule: Q01DX009 (ip), vehicle: saline) is 140 % of control.
For `CCCCCC#CC1OC12CCCCC2` (stereo not given), the T/C is, setting by setting: (dose: 100.0 mg/kg/injection, schedule: Q01DX009 (ip), vehicle: saline with Tween-80) 133 % of control; (dose: 200.0 mg/kg/injection, schedule: Q01DX009 (ip), vehicle: saline with Tween-80) 128 % of control. Moreover, the survivor count (dose: 300.0 mg/kg/injection, schedule: Q01DX009 (ip), vehicle: saline with Tween-80) was 5 of 6.
Regarding `CC(C)=CCC(OC(=O)C=C(C)C)C1=CC(=O)c2c(O)ccc(O)c2C1=O` (stereo not given), the survivor count reads like this: (dose: 5.0 mg/kg/injection, schedule: Q01DX009 (ip), vehicle: carboxymethylcellulose (CMC)) 2 of 6; (dose: 10.0 mg/kg/injection, schedule: Q01DX009 (ip), vehicle: carboxymethylcellulose (CMC)) 0 of 6; (dose: 12.5 mg/kg/injection, schedule: Q01DX009 (ip), vehicle: water) 7 of 10; (dose: 25.0 mg/kg/injection, schedule: Q01DX009 (ip), vehicle: water) 7 of 10; (dose: 50.0 mg/kg/injection, schedule: Q04DX003 (ip), vehicle: water) 3 of 10; (dose: 100.0 mg/kg/injection, schedule: Q04DX003 (ip), vehicle: water) 1 of 10. For the same molecule, the T/C runs as follows: (dose: 12.5 mg/kg/injection, schedule: Q04DX003 (ip), vehicle: water) 127 % of control; (dose: 25.0 mg/kg/injection, schedule: Q04DX003 (ip), vehicle: water) 136 % of control (2×).
With `O=C(CN1CCOCC1)Nc1nc(-c2ccc(Cl)cc2)cs1`, the survivor count (dose: 200.0 mg/kg/injection, schedule: Q01DX005 (ip), vehicle: saline with Tween-80) is on record as 5 of 5.
